For the assay, the target named is T1, LONP1^S855A (catalytic dead mutant of the LONP1 protease, traps substrates without degrading them) (UniProt P36776).
T1 sequence: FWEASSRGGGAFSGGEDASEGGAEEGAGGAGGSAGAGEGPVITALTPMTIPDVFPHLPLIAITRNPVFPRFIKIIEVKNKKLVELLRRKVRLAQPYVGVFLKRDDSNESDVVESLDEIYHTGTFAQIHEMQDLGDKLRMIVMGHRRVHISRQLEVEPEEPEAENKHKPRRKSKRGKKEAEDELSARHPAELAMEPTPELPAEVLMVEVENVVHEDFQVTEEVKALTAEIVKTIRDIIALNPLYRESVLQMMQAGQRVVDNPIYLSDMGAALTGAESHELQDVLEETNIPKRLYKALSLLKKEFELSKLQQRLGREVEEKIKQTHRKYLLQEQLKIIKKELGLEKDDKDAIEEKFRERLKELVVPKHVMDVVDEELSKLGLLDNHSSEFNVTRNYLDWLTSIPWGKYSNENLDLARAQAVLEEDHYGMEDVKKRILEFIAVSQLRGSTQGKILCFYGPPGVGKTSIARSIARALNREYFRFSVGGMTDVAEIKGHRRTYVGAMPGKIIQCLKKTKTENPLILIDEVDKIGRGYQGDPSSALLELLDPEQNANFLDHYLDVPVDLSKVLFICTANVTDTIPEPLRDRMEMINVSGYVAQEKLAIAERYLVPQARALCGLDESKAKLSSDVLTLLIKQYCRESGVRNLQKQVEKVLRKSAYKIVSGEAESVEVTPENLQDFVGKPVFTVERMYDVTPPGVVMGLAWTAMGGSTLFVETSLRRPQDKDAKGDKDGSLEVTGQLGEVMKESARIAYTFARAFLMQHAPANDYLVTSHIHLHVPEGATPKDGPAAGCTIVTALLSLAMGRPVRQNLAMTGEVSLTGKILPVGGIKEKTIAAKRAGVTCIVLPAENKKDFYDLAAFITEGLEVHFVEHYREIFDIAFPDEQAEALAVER
The assay is described as follows: SEC. (In gel filtration, larger molecules generally elute earlier.)

No constants are given. Whether binding was seen depends on the method and setting. Binding calls can cover weak binding; strength is not graded here.

On to “POLγA^WT, catalytic subunit of the mitochondrial DNA polymerase gamma (mouse) (enzyme)”, for which the binding result is reported as “binds”.

The record behind these values is publication doi:10.1101/2020.09.10.291369.
